Values of other authors as cited in patent publication US5693312A, “Pharmaceutical composition having analgesic activity” (Zambon Group S.p.A., priority 1993, dated 1997).

Details: oral, daily doses of 500-1500 mg

COc1ccc2cc([C@H](C)C(=O)O)ccc2c1 [Naproxen, (S)-2-(6-methoxy-2-naphthyl)propionic acid]
time to reach maximum plasmatic concentration: about two
